Seven molecules from publication doi:10.1101/488536 can be followed below.

No constants are given. Whether binding was seen depends on the method and setting. Some entries that bind do so weakly or less than the wild type. Tags and fused reporters may be left off the sequences shown.

Assay in all cases: two-hybrid
For test [1], the target named is T1, CMI2/PID Binding Protein 1 (PBP1), two-hybrid fusion (Arabidopsis) (UniProt Q9LSQ6).
T1 sequence: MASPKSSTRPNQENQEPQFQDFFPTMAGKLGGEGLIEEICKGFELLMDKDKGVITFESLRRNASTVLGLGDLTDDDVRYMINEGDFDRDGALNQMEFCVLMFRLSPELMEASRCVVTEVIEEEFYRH

Test [2] has as its target T2, CMI1, two-hybrid fusion of the assays with auxin transport and signaling proteins (S11 Fig) (Arabidopsis) (UniProt O81831).
T2 sequence: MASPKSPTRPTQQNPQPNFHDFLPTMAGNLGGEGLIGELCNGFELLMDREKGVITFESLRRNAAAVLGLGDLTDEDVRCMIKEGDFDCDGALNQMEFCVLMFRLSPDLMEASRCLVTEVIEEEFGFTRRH

Test [3] concerns the target T3, ICR1, LexA system two-hybrid fusion (Arabidopsis) (UniProt Q8LE98).
T3 sequence: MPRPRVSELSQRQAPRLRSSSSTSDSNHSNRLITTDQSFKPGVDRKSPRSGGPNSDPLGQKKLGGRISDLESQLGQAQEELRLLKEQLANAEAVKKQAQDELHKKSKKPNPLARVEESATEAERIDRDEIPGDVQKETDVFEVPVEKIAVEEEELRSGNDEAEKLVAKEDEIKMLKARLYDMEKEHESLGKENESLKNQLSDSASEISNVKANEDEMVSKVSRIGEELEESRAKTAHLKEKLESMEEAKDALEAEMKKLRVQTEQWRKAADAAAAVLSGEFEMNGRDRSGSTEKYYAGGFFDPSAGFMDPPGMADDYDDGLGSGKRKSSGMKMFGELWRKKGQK

For test [4], the target named is T4, full-length ICR1, pDEST22/pDEST32 two-hybrid fusion (Arabidopsis) (UniProt Q8LE98).
T4 sequence: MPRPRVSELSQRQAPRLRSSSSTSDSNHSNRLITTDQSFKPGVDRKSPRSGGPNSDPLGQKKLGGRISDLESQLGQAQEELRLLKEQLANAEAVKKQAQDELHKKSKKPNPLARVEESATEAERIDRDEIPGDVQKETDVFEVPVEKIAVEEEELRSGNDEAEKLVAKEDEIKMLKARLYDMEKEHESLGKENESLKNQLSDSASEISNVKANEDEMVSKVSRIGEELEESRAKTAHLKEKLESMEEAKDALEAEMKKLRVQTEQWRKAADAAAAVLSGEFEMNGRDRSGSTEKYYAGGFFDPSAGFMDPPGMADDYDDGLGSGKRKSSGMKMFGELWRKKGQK

Test [5] addresses T5, ICR1 (Interactor of Constitutively active ROP 1), pGBT-ICR1 two-hybrid fusion (Arabidopsis) (UniProt Q8LE98).
T5 sequence: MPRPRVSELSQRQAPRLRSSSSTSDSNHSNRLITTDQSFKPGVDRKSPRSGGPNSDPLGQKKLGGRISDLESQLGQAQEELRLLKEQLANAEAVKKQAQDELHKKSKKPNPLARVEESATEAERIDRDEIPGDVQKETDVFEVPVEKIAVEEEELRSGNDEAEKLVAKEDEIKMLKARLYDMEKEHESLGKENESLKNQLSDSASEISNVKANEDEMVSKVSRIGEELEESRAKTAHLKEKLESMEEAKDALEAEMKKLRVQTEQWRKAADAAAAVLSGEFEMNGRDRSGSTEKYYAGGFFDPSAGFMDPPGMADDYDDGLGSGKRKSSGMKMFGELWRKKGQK

B1: PINOID (PID), AGC kinase, two-hybrid fusion (enzyme, UniProt O64682 1-438)
chain: MLRESDGEMSLGTTNSPISSGTESCSSFSRLSFDAPPSTIPEEESFLSLKPHRSSDFAYAEIRRRKKQGLTFRDFRLMRRIGAGDIGTVYLCRLAGDEEESRSSYFAMKVVDKEALALKKKMHRAEMEKTILKMLDHPFLPTLYAEFEASHFSCIVMEYCSGGDLHSLRHRQPHRRFSLSSARFYAAEVLVALEYLHMLGIIYRDLKPENILVRSDGHIMLSDFDLSLCSDSIAAVESSSSSPENQQLRSPRRFTRLARLFQRVLRSKKVQTLEPTRLFVAEPVTARSGSFVGTHEYVAPEVASGGSHGNAVDWWAFGVFLYEMIYGKTPFVAPTNDVILRNIVKRQLSFPTDSPATMFELHARNLISGLLNKDPTKRLGSRRGAAEVKVHPFFKGLNFALIRTLTPPEIPSSVVKKPMKSATFSGRSSNKPAAFDYF
As to B1, the binding entry is on record as “binds” in test [1] and “no binding” in test [2].

B2: ARF5, two-hybrid fusion (prey) (protein, UniProt P93024 1-902)
chain: MMASLSCVEDKMKTSCLVNGGGTITTTTSQSTLLEEMKLLKDQSGTRKPVINSELWHACAGPLVCLPQVGSLVYYFSQGHSEQVAVSTRRSATTQVPNYPNLPSQLMCQVHNVTLHADKDSDEIYAQMSLQPVHSERDVFPVPDFGMLRGSKHPTEFFCKTLTASDTSTHGGFSVPRRAAEKLFPPLDYSAQPPTQELVVRDLHENTWTFRHIYRGQPKRHLLTTGWSLFVGSKRLRAGDSVLFIRDEKSQLMVGVRRANRQQTALPSSVLSADSMHIGVLAAAAHATANRTPFLIFYNPRACPAEFVIPLAKYRKAICGSQLSVGMRFGMMFETEDSGKRRYMGTIVGISDLDPLRWPGSKWRNLQVEWDEPGCNDKPTRVSPWDIETPESLFIFPSLTSGLKRQLHPSYFAGETEWGSLIKRPLIRVPDSANGIMPYASFPSMASEQLMKMMMRPHNNQNVPSFMSEMQQNIVMGNGGLLGDMKMQQPLMMNQKSEMVQPQNKLTVNPSASNTSGQEQNLSQSMSAPAKPENSTLSGCSSGRVQHGLEQSMEQASQVTTSTVCNEEKVNQLLQKPGASSPVQADQCLDITHQIYQPQSDPINGFSFLETDELTSQVSSFQSLAGSYKQPFILSSQDSSAVVLPDSTNSPLFHDVWDTQLNGLKFDQFSPLMQQDLYASQNICMSNSTTSNILDPPLSNTVLDDFCAIKDTDFQNHPSGCLVGNNNTSFAQDVQSQITSASFADSQAFSRQDFPDNSGGTGTSSSNVDFDDCSLRQNSKGSSWQKIATPRVRTYTKVQKTGSVGRSIDVTSFKDYEELKSAIECMFGLEGLLTHPQSSGWKLVYVDYESDVLLVGDDPWEEFVGCVRCIRILSPTEVQQMSEEGMKLLNSAGINDLKTSVS
On to B2, for which the binding entry in test [2] is “no binding”.

B3: CMI1, LexA system two-hybrid fusions (CMI1-LexA-BD and CMI1-Lex-AD) (protein, UniProt O81831 1-130)
chain: MASPKSPTRPTQQNPQPNFHDFLPTMAGNLGGEGLIGELCNGFELLMDREKGVITFESLRRNAAAVLGLGDLTDEDVRCMIKEGDFDCDGALNQMEFCVLMFRLSPDLMEASRCLVTEVIEEEFGFTRRH
Take B3: in test [3], the binding result is “binds”.

B4: cmi1 L92A, pDEST22/pDEST32 two-hybrid fusion (protein, UniProt O81831 1-130)
chain: MASPKSPTRPTQQNPQPNFHDFLPTMAGNLGGEGLIGELCNGFELLMDREKGVITFESLRRNAAAVLGLGDLTDEDVRCMIKEGDFDCDGAANQMEFCVLMFRLSPDLMEASRCLVTEVIEEEFGFTRRH
As to B4, the binding entry in test [4] is “no binding”.

B5: cmi1 L59A, pDEST22/pDEST32 two-hybrid fusion (protein, UniProt O81831 1-130)
chain: MASPKSPTRPTQQNPQPNFHDFLPTMAGNLGGEGLIGELCNGFELLMDREKGVITFESARRNAAAVLGLGDLTDEDVRCMIKEGDFDCDGALNQMEFCVLMFRLSPDLMEASRCLVTEVIEEEFGFTRRH
Regarding B5, the binding result in test [4] is “no binding”.

B6: cmi1D85N, pGAD-cmi1D85N two-hybrid fusion (protein, UniProt O81831 1-130)
chain: MASPKSPTRPTQQNPQPNFHDFLPTMAGNLGGEGLIGELCNGFELLMDREKGVITFESLRRNAAAVLGLGDLTDEDVRCMIKEGNFDCDGALNQMEFCVLMFRLSPDLMEASRCLVTEVIEEEFGFTRRH
B6: the binding result in test [5] is listed as “no binding”.

B7: cmi1 L100A, pDEST22/pDEST32 two-hybrid fusion (protein, UniProt O81831 1-130)
chain: MASPKSPTRPTQQNPQPNFHDFLPTMAGNLGGEGLIGELCNGFELLMDREKGVITFESLRRNAAAVLGLGDLTDEDVRCMIKEGDFDCDGALNQMEFCVAMFRLSPDLMEASRCLVTEVIEEEFGFTRRH
Take B7: the binding result in test [4] is “no binding”.
